The values that follow come from the supplement of paper PMC5949888.

Most values lie at the floor of the assay. Slopes are relative: functional sequences can read slightly below zero. Where only a bound is given, the exact number is not on record here.

This data set concerns Saccharomyces cerevisiae PS128 hsf1 delta, HSF1(1-493) fusion. Description: growth estimate (transactivation domain function in HSF1 fusion, heat-shock survival) (a.u. (slope of normalised read count over time)); higher = stronger growth at 37°C, i.e. more transactivation activity. The conditions noted are these: library: random library.
With RRV, the growth estimate was < -0.25.

On to PGLSKFWQVLSSGILEMIMG, for which the growth estimate is < -0.25.

As to SYSGMKNGYEPVSQATVFRR, the growth estimate is < -0.25.

As for LLLSTTARSILGIPLIVWAA, the growth estimate is < -0.25.

Take FPRGRPCTRYFERFDGWTGG: the growth estimate is < -0.25.

Consider SEFRAGRGCMSAHFPLATRG, for which the growth estimate was -0.221.

On to ISIPRSARQF, for which the growth estimate is < -0.25.

As for PSEIDDSMFAIAVRLAGLRR, the growth estimate was < -0.25.

Regarding RFGQCLIGHRGIFAGGPIIA, the growth estimate was < -0.25.

FTGINVSYARQALLWVDAQY: the growth estimate was < -0.25.

With RGTDVRGPSVVLWIRLNLRT, the growth estimate was < -0.25.

Regarding RFTLNRVVRIMVTCVSF, the growth estimate was < -0.25.

GGLPGISFYNRHALWGITLP: the growth estimate was < -0.25.

Consider VSTSQVAHGVWSVTIRAGRR, for which the growth estimate is < -0.25.

For the substance VDSLLHPNEGPV, the growth estimate is < -0.25.

On to RIGKSSAPGKKVRLASRGKH, for which the growth estimate was < -0.25.

On to QAS, for which the growth estimate is < -0.25.

Consider YPARTYA, for which the growth estimate was < -0.25.

With RSETSPVRRILCTCQTDRKA, the growth estimate is < -0.25.

In the case of SPCLAQCAHPDVQESGPGHM, the growth estimate was < -0.25.

Take GLIG: the growth estimate is < -0.25.

With WQLSPVEHTAPRVRFSVSHP, the growth estimate is < -0.25.

Take YPSICRSSLKSALASRMGTV: the growth estimate is < -0.25.

In the case of DQSIGPLLAVYHPASVTGRE, the growth estimate was < -0.25.

In the case of SAR, the growth estimate is < -0.25.

For the substance AAARGIDYDQTMETARFNLF, the growth estimate was 2.25.

Turning to RCNSNCSWGANTSAPVASVT, the growth estimate was < -0.25.

In the case of RTRVTSYMARRQ, the growth estimate was < -0.25.

As to LNESAT, the growth estimate is < -0.25.

In the case of ACQPRLSQTWSRSTAQTTKS, the growth estimate was < -0.25.

As to WWHYPLFHRYVEQGNLSNLN, the growth estimate is < -0.25.

SATVGLRKADASRGLEW: the growth estimate was < -0.25.

CSLQ: the growth estimate is < -0.25.

As for PTFTVETRR, the growth estimate was < -0.25.

With GKICLGNGPNEQELRAWLMH, the growth estimate is < -0.25.

With IRLLRPP, the growth estimate was < -0.25.

Regarding RFNYSWPAIVVGGHQYGAQC, the growth estimate was < -0.25.

For VVTIYRQWQLHC, the growth estimate is < -0.25.

For SQRCRDPGPQARESYRQAEA, the growth estimate was < -0.25.

As to QVVVA, the growth estimate was < -0.25.

For the substance EELDYLKGNPRLYEAVDAHS, the growth estimate is < -0.25.

On to FFKDWLPPSLRLDCCDDMHH, for which the growth estimate is < -0.25.

As to RYGVID, the growth estimate was < -0.25.

As to QRKGGQDTFGQWLRLALINV, the growth estimate is < -0.25.

With IHSSFIKGRPSCLPFQPSHL, the growth estimate is < -0.25.

For the substance EDWDSGDVTA, the growth estimate was < -0.25.

Regarding GATFAHEVAGQWTAIALLAG, the growth estimate was < -0.25.

Take RTRKIGTEW: the growth estimate was < -0.25.

As for REYRLVRCDLRTVCHTVNSA, the growth estimate was < -0.25.

NHSTGYVKGGFRS: the growth estimate was < -0.25.

Regarding HGSEGGSCVLFAKALHLLKS, the growth estimate is < -0.25.

RAPEAWVRYRAVRIEESIRD: the growth estimate was < -0.25.

Regarding ETDCRKDLESL, the growth estimate was < -0.25.

DRINVLDGHSISEAWSRWL: the growth estimate is 0.26.

As for CIAPYRWVALENPRTRLF, the growth estimate was < -0.25.

As for PKRTAPPLTVSLIERFLQPP, the growth estimate was < -0.25.

With LDPLYRVNMEF, the growth estimate is -0.241.

Consider TSDGAGD, for which the growth estimate is 0.141.

On to GHLVQHSVTRNPSGPVSDLA, for which the growth estimate is < -0.25.

Consider HRSRLQTQGRVGLVIVCRVC, for which the growth estimate was < -0.25.

Consider RRRCRA, for which the growth estimate was < -0.25.

In the case of KVYGAIAILERSYAAPTQRQ, the growth estimate is < -0.25.

As to TCAGTGIWLGRSNTSIDFCA, the growth estimate was < -0.25.

As for RSGHHSSVTSNILVIVDT, the growth estimate is < -0.25.

TKPWDILMIPAN: the growth estimate was < -0.25.

Turning to ISFLAIVMSFSGIQQFAVVH, the growth estimate is < -0.25.

Turning to NRILL, the growth estimate is < -0.25.

VAITCRTDPRHLLGE: the growth estimate is < -0.25.

On to RSCYACRKFCSYVLCSYETP, for which the growth estimate is < -0.25.

Regarding HSATVQVRSPRIGKTTIS, the growth estimate is < -0.25.

Regarding NWGVSPSG, the growth estimate is < -0.25.

Take LVFNSGNQVLQALLTRL: the growth estimate is < -0.25.

As for AGHLGKYASF, the growth estimate was < -0.25.

Turning to PYLHMLNGRISRGLGI, the growth estimate was < -0.25.

CGLR: the growth estimate is < -0.25.

Turning to DASPVRGRMARGP, the growth estimate is < -0.25.

On to LSWGGDCVQGKCLHKVTTLA, for which the growth estimate was < -0.25.

As to RDAALTSGQEPGDACIMLLS, the growth estimate was < -0.25.

In the case of LYLQVMCR, the growth estimate was < -0.25.
